Test results reported in doi:10.1101/651463 (bioRxiv, 2019).
These are yes or no findings as the source states them, for the method shown. In cells and extracts the contact can be indirect. Some binding calls cover weakened binding; strength is not graded here.

By UniProt entry, the sequences of proteins in these tests, tags left out.
UniProt P21730: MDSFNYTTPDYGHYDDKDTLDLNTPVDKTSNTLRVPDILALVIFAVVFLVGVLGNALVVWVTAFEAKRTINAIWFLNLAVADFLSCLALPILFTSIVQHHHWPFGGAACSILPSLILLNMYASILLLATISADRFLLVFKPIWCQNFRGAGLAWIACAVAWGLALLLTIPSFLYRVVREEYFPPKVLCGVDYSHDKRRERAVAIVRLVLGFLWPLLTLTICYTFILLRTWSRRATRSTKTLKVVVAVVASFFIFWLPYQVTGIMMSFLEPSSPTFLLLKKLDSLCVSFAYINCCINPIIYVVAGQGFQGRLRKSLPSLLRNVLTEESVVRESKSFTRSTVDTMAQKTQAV
UniProt P29066: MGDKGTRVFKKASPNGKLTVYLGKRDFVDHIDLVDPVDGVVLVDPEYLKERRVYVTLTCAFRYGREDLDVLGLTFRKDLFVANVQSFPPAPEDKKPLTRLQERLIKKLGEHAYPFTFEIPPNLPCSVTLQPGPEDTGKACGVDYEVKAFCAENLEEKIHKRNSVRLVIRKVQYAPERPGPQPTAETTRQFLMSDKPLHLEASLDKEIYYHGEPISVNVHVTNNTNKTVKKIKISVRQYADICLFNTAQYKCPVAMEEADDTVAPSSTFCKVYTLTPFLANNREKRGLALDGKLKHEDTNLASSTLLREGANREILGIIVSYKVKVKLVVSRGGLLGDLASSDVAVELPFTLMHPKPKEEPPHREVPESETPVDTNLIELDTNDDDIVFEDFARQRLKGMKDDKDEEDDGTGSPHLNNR

Target: complement C5a receptor (C5aR1) (UniProt P21730)
Assay: co-IP

- binding: binds
Substance: β-arrestin 1 (from UniProt P29066 1-418)
